Our source for the binding values is publication PMC7686738.

Chains of the proteins cited; added tags and fusions are not shown.
UniProt P62873: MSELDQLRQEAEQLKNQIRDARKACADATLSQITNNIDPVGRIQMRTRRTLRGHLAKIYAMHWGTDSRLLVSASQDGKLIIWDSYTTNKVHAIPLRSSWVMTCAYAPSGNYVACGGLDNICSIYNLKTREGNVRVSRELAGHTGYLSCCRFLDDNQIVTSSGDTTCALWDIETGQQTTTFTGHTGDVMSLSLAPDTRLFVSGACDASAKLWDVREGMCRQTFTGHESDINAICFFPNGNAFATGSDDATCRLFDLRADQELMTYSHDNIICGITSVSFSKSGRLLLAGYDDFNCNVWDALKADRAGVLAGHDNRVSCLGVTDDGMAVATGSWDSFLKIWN
UniProt P25106: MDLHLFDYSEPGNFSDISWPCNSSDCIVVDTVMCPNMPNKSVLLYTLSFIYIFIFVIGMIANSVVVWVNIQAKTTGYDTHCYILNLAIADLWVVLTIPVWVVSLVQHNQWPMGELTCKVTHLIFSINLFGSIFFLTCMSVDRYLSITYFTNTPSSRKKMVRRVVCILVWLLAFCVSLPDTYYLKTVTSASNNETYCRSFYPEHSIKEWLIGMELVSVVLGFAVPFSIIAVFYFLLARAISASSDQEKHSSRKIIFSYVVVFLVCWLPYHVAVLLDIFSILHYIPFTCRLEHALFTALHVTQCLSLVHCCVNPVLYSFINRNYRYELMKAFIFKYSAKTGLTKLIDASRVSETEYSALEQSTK
UniProt P34947: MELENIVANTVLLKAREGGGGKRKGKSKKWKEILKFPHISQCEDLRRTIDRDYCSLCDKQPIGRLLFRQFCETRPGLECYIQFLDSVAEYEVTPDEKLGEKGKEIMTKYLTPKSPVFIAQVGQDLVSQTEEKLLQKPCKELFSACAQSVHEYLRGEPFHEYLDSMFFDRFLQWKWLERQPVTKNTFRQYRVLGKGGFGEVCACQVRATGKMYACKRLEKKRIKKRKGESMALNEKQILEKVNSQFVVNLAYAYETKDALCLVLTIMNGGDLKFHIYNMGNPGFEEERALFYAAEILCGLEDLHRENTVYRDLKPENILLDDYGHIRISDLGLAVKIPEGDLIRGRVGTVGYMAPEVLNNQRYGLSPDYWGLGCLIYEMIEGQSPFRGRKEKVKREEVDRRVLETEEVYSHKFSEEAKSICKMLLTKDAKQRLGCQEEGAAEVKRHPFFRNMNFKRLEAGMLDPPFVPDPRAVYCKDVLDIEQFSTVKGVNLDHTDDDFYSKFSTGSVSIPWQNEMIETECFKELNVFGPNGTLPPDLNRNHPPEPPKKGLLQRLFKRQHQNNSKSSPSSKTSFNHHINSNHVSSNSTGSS

Assay [1] concerns the target Gβ1-SmBiT (UniProt P62873). Nature of the assay: split reporter; NanoBiT in live HEK293 cells, three-gene combination (30 ng each): CXCR4 co-expressed with SmBiT-tagged Gβ1 and GRK2-LgBiT or GRK5-LgBiT; SDF-1α or vehicle.
For assay [2], the target named is Gβ1-SmBiT (UniProt P62873). Nature of the assay: condition: only with CXCR7 as the co-expressed receptor; split reporter; NanoBiT in live HEK293 cells, three-gene combination (30 ng each): CXCR7 co-expressed with SmBiT-tagged Gβ1 and GRK2-LgBiT or GRK5-LgBiT; SDF-1α or vehicle.
Assay [3] addresses epitope-tagged CXCR7 (FLAG-CXCR7 as bait, HA-CXCR7 as prey) (UniProt P25106). Nature of the assay: cross-linking + co-IP; HEK293 cells incubated with 2 mM BS3 in PBS for 30 min before lysis; immunoprecipitation with anti-FLAG beads (results: RIPA buffer for increased stringency; methods: lysis buffer); western blot with anti-HA. In general terms: In western blotting, separated proteins are transferred to a membrane and probed.

Assay [4] has the same target. Nature of the assay: co-IP; HEK293 cells expressing epitope-tagged receptors; lysis buffer (150 mM NaCl, 50 mM Tris-HCl pH 7.5, 10 mM KCl, 1% Triton X-100); anti-FLAG antibody-conjugated beads, washed at least four times; western blot with anti-HA; no cross-linker.

Results are given in words; binding and its absence hold for the method and conditions named. In cells and extracts the contact can be indirect. Some results given as binding are weak or reduced against the parent protein; the word gives no strength.

In the case of “GRK5-LgBiT (from UniProt P34947 1-590) (enzyme)”, the binding result in the assay with Gβ1-SmBiT [1] is reported as “binds”; in the assay with Gβ1-SmBiT [2], “no binding”.

Regarding “epitope-tagged CXCR7 (FLAG-CXCR7 as bait, HA-CXCR7 as prey) (from UniProt P25106 1-362) (receptor)”, the binding entry in assay [3] and in assay [4] was “binds” throughout.
